# The other results are listed elsewhere or left out.
# The chains behind the UniProt entries cited, without tags or fusion partners.
# UniProt Q0JBA9, entry or part of it: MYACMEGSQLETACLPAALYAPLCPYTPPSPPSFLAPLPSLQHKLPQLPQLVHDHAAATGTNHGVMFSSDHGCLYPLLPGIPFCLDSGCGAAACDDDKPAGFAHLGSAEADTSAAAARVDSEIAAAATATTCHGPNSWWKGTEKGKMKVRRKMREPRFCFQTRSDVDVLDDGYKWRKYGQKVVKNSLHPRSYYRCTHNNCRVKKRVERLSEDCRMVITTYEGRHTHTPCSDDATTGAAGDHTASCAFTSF
# Target: OsWRKY34 (Oryza sativa, UniProt Q0JBA9 1-250)
# Assay: protein-binding microarray (RPBM); PBS, 2% BSA, 51.3 ng/ul salmon testes DNA, 50 uM zinc acetate, 200 nM TF, 25 C, 1 h; high values mean tight binding
# Details: protein: recombinant; tags: N-terminal polyhistidine and DsRed monomer fusion (pET32a); label: CyDye5-dUTP incorporated in the synthesized complementary strand; 3' TTTTT single-stranded linker to array surface; dsDNA, one strand shown
# Method in brief: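 Transcription factors were each fused at the N-terminus to a polyhistidine tag plus DsRed and expressed in E. coli BL21-CodonPlus before Ni–NTA purification. Binding to a double-stranded custom Agilent array was carried out with 200 nM protein at 25 °C for 1 h in PBS, 2% BSA, salmon testes DNA and 50 µM zinc acetate. The binding signal is per-feature fluorescence intensity, in arbitrary units, on an Axon 4000B scanner.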
row,Sequence,binding signal
1,GGGACCTTCTTGAGCTTTCCCGTGTTTTCTATTCATGTAGCGGAGTCACCTAGTGCAG,11500 fluorescence intensity (a.u.)
2,TTTTTCCACTGGTTTGGTTGCAGCTATGTTACTCTTTGAACGGAGTCACCTAGTGCAG,14300 fluorescence intensity (a.u.)
3,TTCTGGTCTCGCTGTTAGATTCACCAAGAAACTCATTTCTCGGAGTCACCTAGTGCAG,8090 fluorescence intensity (a.u.)
4,ACTCTACCACCACCACCACCGCGGAGTCACACCCGAAGCCCGGAGTCACCTAGTGCAG,13600 fluorescence intensity (a.u.)
5,TCTTGTCTGTTCTTCAGTAATCATCCTTTTGTCATTCAGACGGAGTCACCTAGTGCAG,10200 fluorescence intensity (a.u.)
6,AGTTGAGTGGTACTGTAGTGTTGTTGTTCTCTTCCCTTGGCGGAGTCACCTAGTGCAG,9940 fluorescence intensity (a.u.)
7,ATCGTTGATTTTTTTACTTACGTTTGGCCATTGTTCTCATCGGAGTCACCTAGTGCAG,11500 fluorescence intensity (a.u.)
8,TGCGCATGGTAGGAAGGTTATGACGTGTTTGTATTCTCTTCGGAGTCACCTAGTGCAG,9600 fluorescence intensity (a.u.)
9,GATTATAAAATAAATCTTAAATGACTATTTAAATCGATTCCGGAGTCACCTAGTGCAG,8040 fluorescence intensity (a.u.)
10,TCATTGGTACTTTCACAATCACATTCCCATTTTGCGTTTTCGGAGTCACCTAGTGCAG,9950 fluorescence intensity (a.u.)
11,GTGGGGTCCCTTCTTGCTCTATGCTAATTAATGGTAAATTCGGAGTCACCTAGTGCAG,8880 fluorescence intensity (a.u.)
12,GATGGATTTTGGTTTGTGGAATTGTGCAGGAGAGTTGCTGCGGAGTCACCTAGTGCAG,8440 fluorescence intensity (a.u.)
13,GGAGAGAGAGGACAGGAGGGGAGGGCTGAGCTCGTTGGGTCGGAGTCACCTAGTGCAG,12200 fluorescence intensity (a.u.)
14,GCTCATGCTAGCCCTGTCATTTTCAGTCCTAAATTAAATCCGGAGTCACCTAGTGCAG,8480 fluorescence intensity (a.u.)
15,GCTAGCTGGATTGGTGGGTGGGCGCGTCAAGAAGGGGATGCGGAGTCACCTAGTGCAG,9830 fluorescence intensity (a.u.)
16,GTTATCGCTATATCTCAGTGTAATCTAATCGCATTCGCTACGGAGTCACCTAGTGCAG,9700 fluorescence intensity (a.u.)
17,ATCTGAAAGCAAATATCACAAGTGCTGGGGTGCTGGGGTCCGGAGTCACCTAGTGCAG,9760 fluorescence intensity (a.u.)
18,TATATATTGTTTCATGAGATATAAAACTTACTTGATCTTTCGGAGTCACCTAGTGCAG,8300 fluorescence intensity (a.u.)
19,ACATTAAAATTGTCCCGTGACTTCACTTTTCCACGGTATCCGGAGTCACCTAGTGCAG,8090 fluorescence intensity (a.u.)
20,GGCTTTGGATTTTTTTTTCTTTTTTCTTTGGCCTGAATAGCGGAGTCACCTAGTGCAG,9160 fluorescence intensity (a.u.)
21,ACCACTGCAATCTCGCCCCGCCGCACGCACTCCACTAGCTCGGAGTCACCTAGTGCAG,12400 fluorescence intensity (a.u.)
22,GGTCGCTTGTCGCTGCCTCTACCTCGTCCTCTGCTGATTTCGGAGTCACCTAGTGCAG,9200 fluorescence intensity (a.u.)
23,TATATGTATTGGTTGGAAGTTCTGTAAAATTTGAAGCTTCCGGAGTCACCTAGTGCAG,8280 fluorescence intensity (a.u.)
24,GCAGATTTGTTCAAGTTACATAGTTACACTCTAGTTACATCGGAGTCACCTAGTGCAG,8780 fluorescence intensity (a.u.)
25,CTGTACTGGTTTAGACTATCTCAGCTCACTTATCTCTTCACGGAGTCACCTAGTGCAG,10200 fluorescence intensity (a.u.)
26,AATGCAACCATTAAGTTGTCGTTTAGTTGACTTTGTCTACCGGAGTCACCTAGTGCAG,8690 fluorescence intensity (a.u.)
27,GGCACAATGTACTGGAATTATCCTTTTTCTTTCTCTGTAACGGAGTCACCTAGTGCAG,10500 fluorescence intensity (a.u.)

row,Sequence,binding signal
1,GATATTTTTGCCGGTATTTTGGTACGTTATTCGTGTTTGACGGAGTCACCTAGTGCAG,8090 fluorescence intensity (a.u.)
2,ACTTACTTATCCTTAGTCATTGTGCCAAGATGAAATATGACGGAGTCACCTAGTGCAG,8480 fluorescence intensity (a.u.)
3,AGCCGTTCGACTCTTTTGTGAATTCACGGGCTCACAGTATCGGAGTCACCTAGTGCAG,9770 fluorescence intensity (a.u.)
4,ACTACCTCCATACACCAACCCTACGCATACACCAAACACACGGAGTCACCTAGTGCAG,9860 fluorescence intensity (a.u.)
5,CGTCTGTTCTTATCACCTTCTTGCTCCGGTACCTAGCCAACGGAGTCACCTAGTGCAG,8780 fluorescence intensity (a.u.)
6,CTCTGCGGCGGCGGCGGCTGCGAGGTTTTTCTCTCTCTTCCGGAGTCACCTAGTGCAG,11600 fluorescence intensity (a.u.)
7,GGAGGTGGGGATGGTGGGAGGTTTTGGTTTGGTAAAATAGCGGAGTCACCTAGTGCAG,19800 fluorescence intensity (a.u.)
8,TGTTTGATTATGTTCAATCATTGCAAATCATGTCATCTGTCGGAGTCACCTAGTGCAG,9230 fluorescence intensity (a.u.)
9,ACCTACATATCACTAAGTAATCAACTGTATTAGTGACTTACGGAGTCACCTAGTGCAG,8110 fluorescence intensity (a.u.)
10,CTCAACCCCACCCTCCTTATACCGAGAAGACTTTTTCTTCCGGAGTCACCTAGTGCAG,8160 fluorescence intensity (a.u.)
11,TGGTCATAGAAGATCCAAAGGGATCGGCGTTTTTTTCTCCCGGAGTCACCTAGTGCAG,8560 fluorescence intensity (a.u.)
12,CAACTCCAACCCAATTACAAACCCAAACTCGCTTCGCTTTCGGAGTCACCTAGTGCAG,8240 fluorescence intensity (a.u.)
13,GGATGGTGCAGTTCATAGTTTCATACCTTTGGTTTTTGGTCGGAGTCACCTAGTGCAG,9950 fluorescence intensity (a.u.)
14,GAAGCTGTCTTGCATGAGACCCAATTTCTTTCTCTCTTCACGGAGTCACCTAGTGCAG,8340 fluorescence intensity (a.u.)
15,CCAACCAAGCCCGCCATTGTCTCGTCGCAATGGCGGCGTCCGGAGTCACCTAGTGCAG,9750 fluorescence intensity (a.u.)
16,ATCTTCTATTTTTTTGTTGTTGAGATATATATGATCACGTCGGAGTCACCTAGTGCAG,11600 fluorescence intensity (a.u.)
17,AATCCTGCATAACGGTTTTTTTTCTTTTCAGACGATGACGCGGAGTCACCTAGTGCAG,10700 fluorescence intensity (a.u.)
18,ACACCTTTACCAATTCGTTTTTATCTACCTTGTGATATGTCGGAGTCACCTAGTGCAG,8260 fluorescence intensity (a.u.)
19,GCACAAGTAGTCTATTATGGCGTTTTATTTTATTTTGTTACGGAGTCACCTAGTGCAG,9790 fluorescence intensity (a.u.)
20,CTGCTCCTGAGGGGTAGGGAGGGAGGGGAAGGAGCACGTTCGGAGTCACCTAGTGCAG,13200 fluorescence intensity (a.u.)
21,GTTGCATTCCATTAGTGCTTCTCTCTGAATCTTTTGTTTTCGGAGTCACCTAGTGCAG,9570 fluorescence intensity (a.u.)
22,GGAGAAAAAGGGGAGGGAGGGAGATGATGACGTGTAGGGGCGGAGTCACCTAGTGCAG,8550 fluorescence intensity (a.u.)
23,GATCTGAACTTGGAACGGGCTCCATCTCTTATTTGCAACGCGGAGTCACCTAGTGCAG,8670 fluorescence intensity (a.u.)
24,GATTTGGGGATTTGGGGTTTGATTTAGGATGTGCATGCCACGGAGTCACCTAGTGCAG,21400 fluorescence intensity (a.u.)
25,GTCCGCCGTATCGGCGTTTACCGTTTCTTCTTTGCCATGTCGGAGTCACCTAGTGCAG,8140 fluorescence intensity (a.u.)
26,TAATTCCTCGCACAGTAATCTGTCTTCCACTTCACCTGCTCGGAGTCACCTAGTGCAG,12100 fluorescence intensity (a.u.)
27,ACAAATGGTCAAACGTTGATAAAAAAGTCAACGGCGTCATCGGAGTCACCTAGTGCAG,20600 fluorescence intensity (a.u.)

# 3 consecutive records already listed, quoted:
row,Sequence,binding signal
10,CTCAACCCCACCCTCCTTATACCGAGAAGACTTTTTCTTCCGGAGTCACCTAGTGCAG,8160 fluorescence intensity (a.u.)
11,TGGTCATAGAAGATCCAAAGGGATCGGCGTTTTTTTCTCCCGGAGTCACCTAGTGCAG,8560 fluorescence intensity (a.u.)
12,CAACTCCAACCCAATTACAAACCCAAACTCGCTTCGCTTTCGGAGTCACCTAGTGCAG,8240 fluorescence intensity (a.u.)
